In patent US8314269B2, “N-(1-methyl-2phenylethyl)benzamide derivatives” (Bayer Cropscience AG, priority 2005, dated 2012):
Some of these results come from one statement about several compounds together.

How the values were obtained:
Alternaria brassicae = experiment: In vivo test on Alternaria brassicae (leaf spot of crucifers); settings: 500 ppm, preventive spray on radish plants (Pernot), grading 6 to 7 days after contamination vs control plants
[1] = test system: Mycosphaerella graminicola; experiment: In vivo test on Mycosphaerella graminicola (wheat leaf spot); settings: 500 ppm, preventive spray on wheat plants (Scipion), grading 21 to 28 days after contamination vs control plants

Structure (SMILES) | protection (Alternaria brassicae) | protection (% of efficacy) [1]
CC(Cc1ccc(Cl)cc1)NC(=O)c1ccccc1C(F)F (stereo not drawn) [Compound 10] | at least 70% | at least 70%
CC(Cc1ccc(Cl)cc1)NC(=O)c1ccccc1C(F)(F)F (stereo not drawn) [Compound 1] | at least 70% | at least 70%
CC(Cc1ccc(Cl)cc1)NC(=O)c1ccccc1Br (stereo not drawn) [Compound 9] | at least 70% | at least 70%
